Results published in patent publication US20060166876A1.
Results are given in words; binding and its absence hold for the method and conditions named. Some binding calls cover weakened binding; strength is not graded here.

Sequences of proteins named here, by UniProt entry; tags and fusion partners are left off. A change or cut given only in a name is not applied to a line headed by its entry.
UniProt Q01196: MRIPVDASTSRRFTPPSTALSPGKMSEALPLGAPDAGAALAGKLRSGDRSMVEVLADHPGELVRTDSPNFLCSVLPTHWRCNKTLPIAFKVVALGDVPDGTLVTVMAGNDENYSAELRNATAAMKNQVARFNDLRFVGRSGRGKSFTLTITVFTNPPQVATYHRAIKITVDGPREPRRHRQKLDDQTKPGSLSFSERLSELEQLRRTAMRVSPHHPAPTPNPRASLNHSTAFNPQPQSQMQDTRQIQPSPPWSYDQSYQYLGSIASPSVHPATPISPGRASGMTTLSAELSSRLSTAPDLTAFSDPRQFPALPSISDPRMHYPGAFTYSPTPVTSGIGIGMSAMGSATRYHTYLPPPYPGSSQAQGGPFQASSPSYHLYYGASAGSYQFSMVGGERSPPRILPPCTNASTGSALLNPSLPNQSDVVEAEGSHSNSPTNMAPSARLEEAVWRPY
UniProt P06876: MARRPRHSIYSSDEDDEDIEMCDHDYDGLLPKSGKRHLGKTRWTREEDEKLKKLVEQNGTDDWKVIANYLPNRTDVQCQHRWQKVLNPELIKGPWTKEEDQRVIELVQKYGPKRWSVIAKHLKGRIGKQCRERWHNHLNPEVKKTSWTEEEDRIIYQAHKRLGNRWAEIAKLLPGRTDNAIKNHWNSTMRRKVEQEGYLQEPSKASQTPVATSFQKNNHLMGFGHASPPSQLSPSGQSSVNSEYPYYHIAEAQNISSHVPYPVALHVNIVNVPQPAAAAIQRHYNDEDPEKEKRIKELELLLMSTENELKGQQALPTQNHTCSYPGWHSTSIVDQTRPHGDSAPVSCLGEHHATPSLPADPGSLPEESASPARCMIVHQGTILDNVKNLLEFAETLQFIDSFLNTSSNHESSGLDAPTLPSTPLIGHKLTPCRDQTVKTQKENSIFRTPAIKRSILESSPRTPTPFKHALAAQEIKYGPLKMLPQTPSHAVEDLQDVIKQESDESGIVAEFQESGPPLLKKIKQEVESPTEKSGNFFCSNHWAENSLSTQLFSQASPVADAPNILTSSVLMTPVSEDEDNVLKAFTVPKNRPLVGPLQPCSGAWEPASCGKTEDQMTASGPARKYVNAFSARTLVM

Tests used:
[1] = target: FLAG-AML1-ETO (UniProt Q01196); assay: chromatin immunoprecipitation with anti-FLAG in KCL22 cells, PCR of c-kit promoter
[2] = target: AML1-ETO fusion protein (UniProt Q01196); assay: EMSA with nuclear extracts of transfected Cos7 cells, myb consensus oligonucleotide; supershift
[3] = target: AML1-ETO fusion protein (UniProt Q01196); assay: summary sentence opening Example 4 (rests on EMSA and ChIP of Examples 2 and 3)
[4] = target: AML1-ETO fusion protein (UniProt Q01196); assay: EMSA with nuclear extracts of transfected Cos7 cells; supershift (legend of FIG. 2)

Measured: binding

GFP-M&M (from UniProt P06876 65-198; Q99607 87-206) (designed binder)
binds: all assays above
